# Results from the supplement of paper PMC7858590.
# ± gives the standard deviation of the averaged measurements. The list shows a part of the results. Single values are uncertain here, since repeats match poorly.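 Macrophages from blood monocytes of four pooled healthy donors, grown with M-CSF, were M1-like and treated with compounds that shifted resting macrophages M2-like in an initial screen. Z-score: t-test of cell eccentricity (~1000 cells/well) versus same-row DMSO wells. Reprogramming means passing the M2 cutoff of +6 from standard cytokine controls (M1 cutoff −4).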
# System: human monocyte-derived macrophages (polarized)
# Assay: cell shape (eccentricity) Z-score vs DMSO control; macrophage state: M1-polarized (IFNg + TNFa), cytokines removed before treatment; higher = more elongated, M2-like morphology
# Conditions: 24 h
SMILES,cell shape (Z-score) (5 µM),cell shape (Z-score) (10 µM)
O=C(/C=C/c1ccccc1)c1ccc(O)cc1,3.01,9.03
CCCCCCCCCCC(C)(C)C(=O)Nc1c(OC)cc(OC)cc1OC,-6.45 ± 8.1,-5.98 ± 9.2
COc1cc(C(=O)N2CCC(N3CCN(C)CC3)CC2)ccc1Nc1ncc2c(n1)N(C)c1ccccc1C(=O)N2C,-1.48 ± 6.7,-2.1 ± 7.5
c1cc(-c2cnn3cc(-c4ccc(OCCN5CCCCC5)cc4)cnc23)ccn1,1.7 ± 4.5,1.06 ± 2.9
CC1(C)CCC(C)(C)c2cc(C(=O)Nc3ccc(C(=O)O)cc3)ccc21,0.101 ± 7.3,-1.03 ± 6.2
COc1cc(C2OC(c3cc(OC)c(OC)c(OC)c3)C(C)C2C)cc(OC)c1OC (stereo not given),-7.48 ± 9.8,-10.5 ± 9.2
Cc1nn(C)c2nc(NNC(=O)Nc3cc(Cl)nc(Cl)c3)cc(C(C)C)c12,5.29,7.25
CC(C)c1ccccc1Cc1cc(C(=O)Nc2ccc(S(=O)(=O)c3ccccc3C(C)(C)C)cc2)c(O)c(O)c1O,-1.64 ± 3.5,-4.03 ± 0.39
COc1cccc2c1C(=O)c1c(O)c3c(c(O)c1C2=O)C[C@@](O)(C(=O)CO)C[C@@H]3O[C@H]1C[C@H](N)[C@H](O)[C@H](C)O1,7.96,7.68
O=C(Nc1ccc(OC(F)(F)F)cc1)c1sccc1NCc1ccnc2ccccc12,-3.65 ± 2.8,-3.45 ± 3.3
Cc1c(C(N)=O)cc([N+](=O)[O-])cc1[N+](=O)[O-],-1.42 ± 1.3,-5.88 ± 4.8
COc1ccc2oc(-c3ccccc3OC)cc(=O)c2c1,6.44,7.48
NC(=O)C1CCCc2c1[nH]c1ccc(Cl)cc21 (stereo not given),-0.09 ± 0.36,3.07 ± 4.2
CC(=Cc1ccc(C(=O)O)cc1)c1ccc2c(c1)C(C)(C)CCC2(C)C,1.74 ± 6.3,-1.04 ± 4.1
CN(C)C(=O)n1nnnc1Cc1ccc(-c2ccccc2)cc1,7.73 ± 8.2,6.57 ± 5.6
CC1=C(/C=C/C(C)=C/C=C/C(C)=C/CO)C(C)(C)CCC1,-8.23 ± 12,-5.65 ± 13
COc1cc2nccc(Oc3ccc(NC(=O)Nc4cc(C)on4)c(Cl)c3)c2cc1OC,8.31 ± 7,9.45 ± 6
CNC(=O)c1cc(Oc2ccc(NC(=O)Nc3ccc(Cl)c(C(F)(F)F)c3)cc2)ccn1,9.88,13.6
Clc1ccc(C2(c3ccc(-c4cn[nH]c4)cc3)CCNCC2)cc1,7 ± 5.3,11.2
Cc1cc(N2CCOCC2)cc2[nH]c(-c3c(NC[C@@H](O)c4cccc(Cl)c4)cc[nH]c3=O)nc12,-2.56 ± 15,-13.4 ± 0.78

# Complete entries, looked up by structure:
# CCCCCCCCCCC(C)(C)C(=O)Nc1c(OC)cc(OC)cc1OC in the list: cell shape (Z-score) (5 µM): -6.45 ± 8.1; cell shape (Z-score) (10 µM): -5.98 ± 9.2
# Cc1cc(N2CCOCC2)cc2[nH]c(-c3c(NC[C@@H](O)c4cccc(Cl)c4)cc[nH]c3=O)nc12 in the list: cell shape (Z-score) (5 µM): -2.56 ± 15; cell shape (Z-score) (10 µM): -13.4 ± 0.78
# COc1cc2nccc(Oc3ccc(NC(=O)Nc4cc(C)on4)c(Cl)c3)c2cc1OC in the list: cell shape (Z-score) (5 µM): 8.31 ± 7; cell shape (Z-score) (10 µM): 9.45 ± 6

# (listing goes on)

SMILES,cell shape (Z-score) (5 µM),cell shape (Z-score) (10 µM)
C/C=C/c1ccc2c(c1)O[C@@H](CN(C)C(=O)c1ccccc1)[C@@H](C)CN([C@@H](C)CO)S2(=O)=O,4.48 ± 5.8,4.25 ± 4.4
CC1CC(=O)c2c(ccc3c2C(=O)c2cccc(O)c2C3O)C1 (stereo not given),-1.61 ± 5.9,-1.23 ± 5.2
CC1(C)CCC(CN2CCN(c3ccc(C(=O)NS(=O)(=O)c4ccc(NCC5CCOCC5)c([N+](=O)[O-])c4)c(Oc4cnc5[nH]ccc5c4)c3)CC2)=C(c2ccc(Cl)cc2)C1,0.143 ± 2.9,4.12 ± 4.7
OC[C@H](Cc1ccccc1)Nc1nc(Oc2ccc3c(c2)CCC3)nc2c1ncn2Cc1ccc(-c2ccccc2)cc1,7.87 ± 4.5,6.14
COc1nccnc1NS(=O)(=O)c1ccc(NC(=O)/C=C/c2ccc([N+](=O)[O-])s2)cc1,-3.81 ± 4.1,-10.9 ± 10
COc1ccc([C@H]2CNC(=O)C2)cc1OC1CCCC1,-0.396 ± 3.5,-4.31 ± 0.067
N#CC[C@H](C1CCCC1)n1cc(-c2ncnc3[nH]ccc23)cn1,0.241 ± 1.8,2.64 ± 0.99
O=C(/C=C/c1cccc(S(=O)(=O)Nc2ccccc2)c1)NO,-0.151 ± 0.12,-2.18 ± 3.1
CC1(C)C(=O)C=CC2(C)C1C=CC1(C)C2CCC2(C)C(c3ccoc3)OC(=O)C3OC312 (stereo not given),0.464 ± 4.7,-5.16 ± 5
Nc1nc(Nc2ccc3c(c2)CCC(N2CCCC2)CC3)nn1-c1cc2c(nn1)-c1ccccc1CCC2 (stereo not given),-5.28 ± 1.4,-8.11 ± 5.4
c1ccc(-c2nnc(N3CCOCC3)nc2-c2ccccc2)cc1,4.56 ± 7.8,5.71 ± 10
CNC(=O)c1cc(Oc2ccc(NC(=O)Nc3ccc(Cl)c(C(F)(F)F)c3)c(F)c2)ccn1,6.1 ± 5.5,7.11
Cn1cc(C2=C(c3cn(CCCSC(=N)N)c4ccccc34)C(=O)NC2=O)c2ccccc21,-4.55 ± 2.7,-3.2 ± 1.3
CCOc1cc2ncc(C#N)c(Nc3ccc(OCc4ccccn4)c(Cl)c3)c2cc1NC(=O)/C=C/CN(C)C,0.735 ± 3.2,-0.744 ± 3
O=C(O)C[C@H](O)C[C@H](O)/C=C/c1c(C2CC2)nc2ccccc2c1-c1ccc(F)cc1,2.02 ± 2.4,1.34 ± 1.5
Clc1ccc(C(Cn2ccnc2)OCc2ccsc2Cl)c(Cl)c1 (stereo not given),3.98 ± 8.3,1.57 ± 5.8
Cc1ccc(C(=O)Nc2ccc(S(=O)(=O)O)c3cc(S(=O)(=O)O)cc(S(=O)(=O)O)c23)cc1NC(=O)c1cccc(NC(=O)Nc2cccc(C(=O)Nc3cc(C(=O)Nc4ccc(S(=O)(=O)O)c5cc(S(=O)(=O)O)cc(S(=O)(=O)O)c45)ccc3C)c2)c1,2.07 ± 8,-6.39 ± 8.2
COc1ccc(-c2cc(=O)c3c(O)cc(OC)c(OC)c3o2)c(OC)c1,-2.14 ± 6.4,-1.04 ± 4.7
C[C@@H](Oc1cc(-c2cnn(C3CCNCC3)c2)cnc1N)c1c(Cl)ccc(F)c1Cl,2.65 ± 0.39,-2.06 ± 2.3
CCn1c(=O)c2c(nc(/C=C/c3ccc(OC)c(OC)c3)n2C)n(CC)c1=O,1.76 ± 0.91,-0.439 ± 0.59
